This is an account of results in PMC8238983.

Protein sequences, listed by entry. Tags and fused reporters are not part of them.
UniProt Q9CUN6: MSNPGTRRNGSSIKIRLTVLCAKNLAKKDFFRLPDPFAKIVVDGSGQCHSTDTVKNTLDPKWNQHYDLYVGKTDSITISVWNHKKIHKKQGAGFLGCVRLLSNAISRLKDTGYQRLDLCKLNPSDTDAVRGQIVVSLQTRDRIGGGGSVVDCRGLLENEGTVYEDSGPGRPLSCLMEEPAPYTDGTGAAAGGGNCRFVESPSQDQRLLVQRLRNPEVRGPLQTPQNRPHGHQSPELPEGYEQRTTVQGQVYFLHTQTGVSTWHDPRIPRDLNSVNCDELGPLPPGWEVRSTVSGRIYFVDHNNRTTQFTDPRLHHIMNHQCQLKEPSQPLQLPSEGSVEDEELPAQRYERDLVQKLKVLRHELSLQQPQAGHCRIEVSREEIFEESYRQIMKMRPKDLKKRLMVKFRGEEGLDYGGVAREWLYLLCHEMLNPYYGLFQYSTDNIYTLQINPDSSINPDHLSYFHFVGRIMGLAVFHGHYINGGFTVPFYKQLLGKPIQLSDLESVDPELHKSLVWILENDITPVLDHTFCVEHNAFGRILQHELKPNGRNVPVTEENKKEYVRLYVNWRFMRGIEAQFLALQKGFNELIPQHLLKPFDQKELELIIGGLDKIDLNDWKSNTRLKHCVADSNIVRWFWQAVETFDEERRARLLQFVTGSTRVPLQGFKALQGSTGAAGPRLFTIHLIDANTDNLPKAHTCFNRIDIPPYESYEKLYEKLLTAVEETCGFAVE

Experiment [1] has as its target T1, TRAF3 Interacting Protein 2 (TRAF3IP2) (mouse (endogenous in MIN6 cells and mouse islets)) (UniProt Q8N7N6).
T1 sequence: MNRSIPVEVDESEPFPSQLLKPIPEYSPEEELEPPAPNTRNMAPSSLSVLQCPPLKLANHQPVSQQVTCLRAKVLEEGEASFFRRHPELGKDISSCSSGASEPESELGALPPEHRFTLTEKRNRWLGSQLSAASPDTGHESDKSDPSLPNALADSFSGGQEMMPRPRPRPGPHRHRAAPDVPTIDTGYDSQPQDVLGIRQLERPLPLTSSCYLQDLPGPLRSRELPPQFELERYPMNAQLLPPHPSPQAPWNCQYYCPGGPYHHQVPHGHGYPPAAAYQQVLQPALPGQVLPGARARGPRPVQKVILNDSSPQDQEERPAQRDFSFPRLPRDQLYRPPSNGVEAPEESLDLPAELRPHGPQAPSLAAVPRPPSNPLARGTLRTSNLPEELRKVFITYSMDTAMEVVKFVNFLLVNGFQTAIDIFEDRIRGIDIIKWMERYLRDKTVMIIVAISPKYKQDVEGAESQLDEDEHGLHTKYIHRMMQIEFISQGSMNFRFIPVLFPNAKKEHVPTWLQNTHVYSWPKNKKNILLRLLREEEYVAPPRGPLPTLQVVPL
The experiment in a line: co-IP; endogenous Co-IP followed by western blot (Fig. S7m, n); also cell lysates from MIN6 cells with overexpression of the lncRNA βFaar (Fig. 7o). (A western blot detects proteins with antibodies after separation by electrophoresis.)

The target in experiment [2] is T1, TRAF3 Interacting Protein 2 (TRAF3IP2) (mouse (endogenous in MIN6 cells and mouse islets)). The experiment in a line: co-IP; Co-IP followed by western blot, islets from len-βFaar mice (lentiviral overexpression of the lncRNA βFaar in vivo, n = 5; Fig. 7p).

No constants are given. Whether binding was seen depends on the method and setting. Binding seen in cells or lysates may run through a third protein. Some results given as binding are weak or reduced against the parent protein; the word gives no strength.

Take “SMAD specific E3 ubiquitin protein ligase 1 (SMURF1) (from UniProt Q9CUN6 1-731) (enzyme)”: the binding result in experiment [1] and in experiment [2] was “binds” throughout.
